US8410289B2, “Spirocyclic 3'-alkoxytetramic acids and-tetronic acids” (Bayer Cropscience AG, priority 2004, dated 2013)
Some of these results come from one statement about several compounds together. At least one structure is not confirmed: it was looked up by name or label, or the drawing left a doubt.

Key:
Format in all cases: in vivo
Avena sativa = experiment: Herbicidal post-emergence action (Example G); conditions: post-emergence method, 320 g/ha of a.i., about 3 weeks
Lolium multiflorum = experiment: Herbicidal post-emergence action (Example G); conditions: post-emergence method, 320 g/ha of a.i., about 3 weeks
Echinochloa = experiment: Herbicidal post-emergence action (Example G); conditions: post-emergence method, 320 g/ha of a.i., about 3 weeks
Setaria viridis = experiment: Herbicidal post-emergence action (Example G); conditions: post-emergence method, 320 g/ha of a.i., about 3 weeks
Tetranychus urticae = experiment: Tetranychus test (OP-resistant/spray treatment); conditions: active compound concentration 100 g/ha, spray treatment, bean leaf discs, OP-resistant
Myzus persicae = experiment: Myzus test (spray treatment); conditions: active compound concentration 500 g/ha, Chinese cabbage discs
Phaedon cochleariae = experiment: Phaedon test (spray treatment); conditions: active compound concentration 500 g/ha, larvae on Chinese cabbage discs

CCCCOC1CCCC2(C1)NC(=O)C(c1c(Br)cc(Cl)cc1CC)=C2O (single isomer, unassigned) [Example I-1-a-49]
herbicidal effect against Avena sativa (Avena sativa): ≥ 70% | herbicidal effect against Lolium multiflorum (Lolium multiflorum): ≥ 70% | herbicidal effect against Echinochloa (Echinochloa): ≥ 70% | herbicidal effect against Setaria viridis (Setaria viridis): ≥ 70%

CCCOC1CCCC2(C1)NC(=O)C(c1cc(C)ccc1C)=C2O (single isomer, unassigned) [Example I-1-a-30]
kill rate against Tetranychus urticae (Tetranychus urticae): ≥ 70% | kill rate against Myzus persicae (Myzus persicae): ≥ 90% | kill rate against Phaedon cochleariae (Phaedon cochleariae): ≥ 90%

CCOC1CCCC2(C1)NC(=O)C(c1c(Br)cc(Cl)cc1CC)=C2O (single isomer, unassigned) [Example I-1-a-51]
kill rate against Tetranychus urticae (Tetranychus urticae): ≥ 70% | kill rate against Myzus persicae (Myzus persicae): ≥ 90% | kill rate against Phaedon cochleariae (Phaedon cochleariae): ≥ 90%

CCCCOC1CCCC2(C1)OC(=O)C(c1c(C)cc(C)cc1C)=C2O (stereo not shown) [Example I-2-a-1]
kill rate against Tetranychus urticae (Tetranychus urticae): ≥ 70% | kill rate against Myzus persicae (Myzus persicae): ≥ 90% | kill rate against Phaedon cochleariae (Phaedon cochleariae): ≥ 90%

CCc1cc(Br)cc(CC)c1C1=C(O)C2(CCCC(OC)C2)OC1=O (mixture of isomers) [Example I-2-a-3]
herbicidal effect against Avena sativa (Avena sativa): ≥ 70% | herbicidal effect against Lolium multiflorum (Lolium multiflorum): ≥ 70% | herbicidal effect against Echinochloa (Echinochloa): ≥ 70% | herbicidal effect against Setaria viridis (Setaria viridis): ≥ 70%

CCCCOC1CCCC2(C1)NC(=O)C(c1c(CC)cc(C)cc1CC)=C2O (single isomer, unassigned) [Example I-1-a-47]
herbicidal effect against Avena sativa (Avena sativa): ≥ 70% | herbicidal effect against Lolium multiflorum (Lolium multiflorum): ≥ 70% | herbicidal effect against Echinochloa (Echinochloa): ≥ 70% | herbicidal effect against Setaria viridis (Setaria viridis): ≥ 70%

CCc1cc(Br)cc(C)c1C1=C(O)C2(CCCC(OC)C2)NC1=O (single isomer, unassigned) [Example I-1-a-79]
herbicidal effect against Avena sativa (Avena sativa): ≥ 70% | herbicidal effect against Lolium multiflorum (Lolium multiflorum): ≥ 70% | herbicidal effect against Echinochloa (Echinochloa): ≥ 70% | herbicidal effect against Setaria viridis (Setaria viridis): ≥ 70%

COc1cc(C)cc(C)c1C1=C(O)C2(CCCC(OC)C2)OC1=O (single isomer, unassigned) [Example I-2-a-16]
kill rate against Tetranychus urticae (Tetranychus urticae): ≥ 70% | kill rate against Myzus persicae (Myzus persicae): ≥ 90% | kill rate against Phaedon cochleariae (Phaedon cochleariae): ≥ 90%

COC1CCCC2(C1)OC(=O)C(c1c(C)ccc(-c3ccc(Cl)cc3)c1C)=C2O (mixture of isomers) [Example I-2-a-42]
kill rate against Tetranychus urticae (Tetranychus urticae): ≥ 70% | kill rate against Myzus persicae (Myzus persicae): ≥ 90% | kill rate against Phaedon cochleariae (Phaedon cochleariae): ≥ 90%

CCOC1CCCC2(C1)NC(=O)C(c1c(CC)cc(Cl)cc1OC)=C2O (single isomer, unassigned) [Example I-1-a-67]
herbicidal effect against Avena sativa (Avena sativa): ≥ 70% | herbicidal effect against Lolium multiflorum (Lolium multiflorum): ≥ 70% | herbicidal effect against Echinochloa (Echinochloa): ≥ 70% | herbicidal effect against Setaria viridis (Setaria viridis): ≥ 70%

CO[C@H]1CCC[C@]2(C1)OC(=O)C(c1cc(-c3ccc(Cl)cc3)c(C)cc1C)=C2OC(=O)C(C)C [Example I-2-b-1]
kill rate against Tetranychus urticae (Tetranychus urticae): ≥ 70% | kill rate against Myzus persicae (Myzus persicae): ≥ 90% | kill rate against Phaedon cochleariae (Phaedon cochleariae): ≥ 90%

CCCCOC1CCCC2(C1)NC(=O)C(c1c(CC)cc(Cl)cc1OC)=C2O (single isomer, unassigned) [Example I-1-a-64]
herbicidal effect against Avena sativa (Avena sativa): ≥ 70% | herbicidal effect against Lolium multiflorum (Lolium multiflorum): ≥ 70% | herbicidal effect against Echinochloa (Echinochloa): ≥ 70% | herbicidal effect against Setaria viridis (Setaria viridis): ≥ 70%

CCOC(=O)OC1=C(c2c(C)cc(C)cc2C)C(=O)NC12CCCC(OCCOC)C2 (single isomer, unassigned) [Example I-1-c-18]
herbicidal effect against Avena sativa (Avena sativa): ≥ 70% | herbicidal effect against Lolium multiflorum (Lolium multiflorum): ≥ 70% | herbicidal effect against Echinochloa (Echinochloa): ≥ 70% | herbicidal effect against Setaria viridis (Setaria viridis): ≥ 70%

COC1CCCC2(C1)OC(=O)C(c1cc(-c3ccc(Cl)cc3)c(C)cc1C)=C2O (mixture of isomers) [Example I-2-a-2]
kill rate against Tetranychus urticae (Tetranychus urticae): ≥ 70% | kill rate against Myzus persicae (Myzus persicae): ≥ 90% | kill rate against Phaedon cochleariae (Phaedon cochleariae): ≥ 90%
